In paper PMC12606344:
These are yes or no findings as the source states them, for the method shown. For part of these data: Binding seen in cells or lysates may run through a third protein. Some results given as binding are weak or reduced against the parent protein; the word gives no strength.

Sequences of proteins named here, by UniProt entry; tags and fusion partners are left off.
UniProt Q92466: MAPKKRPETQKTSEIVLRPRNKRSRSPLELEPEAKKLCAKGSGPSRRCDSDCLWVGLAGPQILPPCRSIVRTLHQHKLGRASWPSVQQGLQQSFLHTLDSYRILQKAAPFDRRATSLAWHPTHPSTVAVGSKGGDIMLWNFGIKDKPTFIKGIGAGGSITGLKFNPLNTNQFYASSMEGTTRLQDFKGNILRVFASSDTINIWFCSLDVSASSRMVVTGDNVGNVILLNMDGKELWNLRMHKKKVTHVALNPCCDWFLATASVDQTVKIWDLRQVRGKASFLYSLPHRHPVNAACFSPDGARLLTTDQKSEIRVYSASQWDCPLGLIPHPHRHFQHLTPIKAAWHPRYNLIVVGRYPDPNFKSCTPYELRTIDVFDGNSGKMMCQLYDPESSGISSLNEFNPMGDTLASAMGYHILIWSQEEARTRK
UniProt Q16531: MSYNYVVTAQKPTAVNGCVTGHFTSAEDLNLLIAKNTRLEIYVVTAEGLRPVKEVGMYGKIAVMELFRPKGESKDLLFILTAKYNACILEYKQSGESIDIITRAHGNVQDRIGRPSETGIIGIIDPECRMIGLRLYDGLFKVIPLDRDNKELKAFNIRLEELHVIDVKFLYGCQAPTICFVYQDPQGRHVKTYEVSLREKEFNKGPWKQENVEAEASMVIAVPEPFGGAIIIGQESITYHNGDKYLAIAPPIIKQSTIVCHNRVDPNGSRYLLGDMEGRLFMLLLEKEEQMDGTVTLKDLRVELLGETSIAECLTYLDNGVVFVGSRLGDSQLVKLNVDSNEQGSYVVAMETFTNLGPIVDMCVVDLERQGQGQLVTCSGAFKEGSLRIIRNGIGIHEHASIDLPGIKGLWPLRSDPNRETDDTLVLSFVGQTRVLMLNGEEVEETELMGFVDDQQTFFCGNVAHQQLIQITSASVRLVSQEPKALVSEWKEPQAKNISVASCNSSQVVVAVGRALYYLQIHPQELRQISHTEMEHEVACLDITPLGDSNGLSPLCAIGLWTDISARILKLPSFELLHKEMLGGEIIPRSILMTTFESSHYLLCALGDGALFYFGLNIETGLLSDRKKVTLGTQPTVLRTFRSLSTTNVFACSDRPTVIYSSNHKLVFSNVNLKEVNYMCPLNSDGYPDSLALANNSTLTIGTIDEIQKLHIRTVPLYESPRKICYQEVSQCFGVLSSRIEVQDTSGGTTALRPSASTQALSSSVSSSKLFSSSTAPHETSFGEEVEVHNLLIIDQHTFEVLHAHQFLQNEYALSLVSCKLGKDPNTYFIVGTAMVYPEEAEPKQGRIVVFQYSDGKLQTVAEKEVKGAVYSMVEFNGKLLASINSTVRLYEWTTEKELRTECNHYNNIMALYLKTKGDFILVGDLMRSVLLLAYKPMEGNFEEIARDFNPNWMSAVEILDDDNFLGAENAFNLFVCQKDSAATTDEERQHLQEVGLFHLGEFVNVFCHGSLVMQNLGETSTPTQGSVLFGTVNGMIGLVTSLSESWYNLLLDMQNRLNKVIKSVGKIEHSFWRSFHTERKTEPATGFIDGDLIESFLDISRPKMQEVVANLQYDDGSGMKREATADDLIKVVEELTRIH

Columns and labels:
[1] = biological target: FLAG-tagged DDB2 (U2OS/DDB2 KO/FLAG-DDB2 cells) (human) (UniProt Q92466); test: cryo-EM structure; ChIP-CryoEM: immunopurified, formaldehyde cross-linked cellular UV-DDB-nucleosome complex from UV-irradiated U2OS/FLAG-DDB2 cells; graphene-coated grids; 12 A
[2] = biological target: FLAG-tagged DDB2 (U2OS/DDB2 KO/FLAG-DDB2 cells) (human) (UniProt Q92466); test: co-IP; anti-FLAG M2 agarose on the MNase-digested chromatin (insoluble) fraction of UV-C irradiated (20 J/m^2) U2OS/FLAG-DDB2 cells, fixed with 0.75% formaldehyde; eluted with FLAG peptide; SDS-PAGE, Oriole stain; also repeated with cells kept 8 h in 20 uM ATPgammaS before UV
[3] = biological target: strep-tagged DDB2 (recombinant) (human) (UniProt Q92466); test: cryo-EM structure; recombinant UV-DDB (DDB1 and DDB2 co-expressed and purified as a complex) mixed with reconstituted NCP^CPD at 1:2 molar ratio in 50 mM HEPES pH 7.4, 50 mM NaCl, 250 uM TCEP, 30 min on ice; 3.4 A; both purified

binding [1] | binding [2] | binding [3] | Substance
binds | binds |  | DDB1 (endogenous, U2OS) (from UniProt Q16531 1-1140)
 |  | binds | strep-tagged DDB1 (recombinant) (from UniProt Q16531 1-1140)
